As usually defined, the AC50 is the concentration at which the activity in the assay is half-maximal. A lower AC50 goes with greater potency.

The text below walks through data of PubChem BioAssay AID2685 (National Center for Advancing Translational Sciences (NCATS), 2010).

This is one part of the list. Shown are side measurements of this screen, not its main read-out; they come without a call. Compounds called inactive in the main read-out are mostly missing here. Words in brackets tell the shape of the fitted curve; partial curves, single points and poor fits give uncertain potencies.

A short description of this assay: qHTS Assay for Lipid Storage Modulators in Drosophila S3 Cells.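 As to cell number change: cells counted by Cell Tracker Red CMTPX staining in the red channel.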 The settings on record: BODIPY lipid droplet fluorescence, 18-24 h; for cell number change: measured here: cell count max response, cells fed with added oleic acid. In outline:
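Drosophila S3 cells got compounds at several concentrations plus oleic acid (400 uM solution). Laser-scanning cytometry with 488 nm excitation read lipid droplets at 500-530 nm and cells at 575-640 nm. Percent activity was relative to 20 uM Triacsin C.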
(In general: Quantitative high-throughput screening tests each substance at several concentrations.)

[1] abbreviates: measured here: cell number channel AC50, cells fed with added oleic acid.
The mark [2] stands for this setting: measured here: lipid fluorescence (Fed channel) AC50, cells fed with added oleic acid.

With `Cc1cc(Cl)c(OCCCN2CCCCC2)c(Br)c1`, the cell number change came out at 16.7%. The AC50 under setting [1] is 2.31 µM [falling, partial curve, poor fit].
In the case of `CCCC(=O)Nc1c(-c2cccc(C)c2)c(=O)c2ccccc2n1C`, the cell number change was -18.4%. Under setting [2], the half-maximal activity concentration (AC50) is 7.31 µM [falling, partial curve].
As to `O=C1C(Cl)=C(NCC2CCCO2)C(=O)N1c1cccc(Cl)c1Cl` (stereo not given), the cell number change was -31.2%.
Turning to `COc1ccc(S(=O)(=O)N2CCCCC2)cc1NC(=O)Cc1cccs1`, the cell number change came out at 32.3%. Further, the concentration at half-maximal activity (AC50) under setting [1] is 0.731 µM [rising, full curve].
`CCCCn1c(N)c(N(CCC(C)C)C(=O)C2CCN(C(=O)c3ccccc3C)CC2)c(=O)[nH]c1=O`: the cell number change is -61%. The AC50 under setting [1] was 29.1 µM [falling, single point].
Take `Cc1ccc(CN2CCc3c(OCC(=O)Nc4cccc(C)c4C)cccc3C2=O)cc1`: the cell number change was -16.3%. Further, under setting [2], the AC50 is 2.31 µM [falling, partial curve].
Turning to `COC(=O)Cn1c(=NC(=O)c2ccc(S(=O)(=O)N3CCOCC3)cc2)sc2cc(S(N)(=O)=O)ccc21`, the cell number change is -7.76%. Moreover, the AC50 under setting [2] is 29.1 µM [falling, single point].
Regarding `CN1C(=O)/C(=C/c2ccccc2OCc2ccc(F)cc2)N(C)C1=S`, the cell number change turned out to be 11.8%. The AC50 under setting [1] was 0.00731 µM [rising, full curve, poor fit]. Besides, the concentration at half-maximal activity (AC50) under setting [2] was 8.2 µM [rising, partial curve, poor fit].
In the case of `Cc1c(C(=O)O)oc2c1/C(=N\O)CC(C)(C)C2`, the cell number change is 49.8%. In addition, the AC50 under setting [1] is 3.66 µM [rising, full curve]. In addition, the AC50 under setting [2] was 0.366 µM [falling, partial curve, poor fit].
With `Cn1cc(/C=C(\C#N)C(=O)Nc2ccccc2O)c2ccccc21`, the cell number change was -12.3%. In addition, the AC50 under setting [2] is 29.1 µM [falling, single point].
In the case of `CN(C)S(=O)(=O)NCCNC(=O)c1cc(OCC(F)(F)F)ccc1OCC(F)(F)F`, the cell number change came out at 27.4%. Further, the AC50 under setting [2] is 11.6 µM [rising, partial curve].
Take `COc1nc(OC)nc(N2CCC(C(=O)NCc3ccco3)CC2)n1`: the AC50 under setting [1] was 2.59 µM [rising, single point].
On to `Cc1cccc(-n2ncc3c2CCCC3NC(=O)CCCN2CCCCC2=O)c1C` (stereo not given), for which the cell number change was -33.8%. Moreover, the concentration at half-maximal activity (AC50) under setting [1] is 23.1 µM [falling, single point].
For the compound `CCc1nnc(NC(=O)c2ccncc2)s1`, the cell number change is 3.48%.
As for `O=C(Nc1ccc(F)cc1)c1cccc2c1C(=O)N(CC1CCCO1)C2` (stereo not given), the cell number change turned out to be 0.865%. Further, the concentration at half-maximal activity (AC50) under setting [2] is 0.517 µM [rising, single point].
As to `O=C(CSc1nnc(-c2ccco2)o1)c1ccc[nH]1`, the cell number change was determined as 32.7%. Besides, the AC50 under setting [1] is 16.4 µM [rising, single point].
With `COc1ccc(NC(=O)CSc2nc3[nH]c(=O)cc(O)c3s2)cc1OC`, the cell number change is 14.9%. For the same compound, the AC50 under setting [1] was 0.291 µM [rising, full curve, poor fit].
Take `COc1cc(C(=O)Nc2nc(-c3ccc(C)cc3)cs2)ccc1OCC(=O)N1CCOCC1`: the cell number change worked out at 2.4%. Further, under setting [1], the AC50 was 4.61 µM [falling, single point].
For the compound `COc1cccc2sc(N(C)c3ccccc3)nc12`, the cell number change was -8.5%. For the same compound, under setting [2], the AC50 was 0.146 µM [falling, full curve].
Turning to `CCc1cc(-c2[nH]ncc2-c2ccc(OC)cc2)c(O)cc1O`, the cell number change was -41.7%. Further, the AC50 under setting [1] was 29.1 µM [falling, single point].
Take `O=C(Nc1ccccc1Cl)N1CCSc2ccccc21`: the cell number change is -40.1%. Moreover, the AC50 under setting [1] was 3.66 µM [falling, full curve]. Moreover, under setting [2], the AC50 was 8.2 µM [falling, partial curve].
On to `N#Cc1nc(COc2ccc(Cl)cc2)oc1NCc1ccc2c(c1)OCO2`, for which the cell number change amounted to 194%. Besides, the AC50 under setting [1] is 5.8 µM [rising, partial curve]. Further, the AC50 under setting [2] was 20.6 µM [rising, partial curve].
Consider `c1ccc2c(c1)ccc1nnc(SCc3ccc4c(c3)OCCO4)n12`, for which the cell number change was -36.2%. Under setting [1], the AC50 is 29.1 µM [falling, single point]. In addition, the AC50 under setting [2] was 29.1 µM [falling, single point].
For the compound `Cc1ccsc1-c1n[nH]c(=S)n1C1CCCCC1`, the cell number change is -10.1%. Moreover, the AC50 under setting [2] is 25.9 µM [falling, single point].
For `COc1ccc(N=N/C(=C\O)C(=O)c2cccs2)cc1`, the cell number change is -23.9%. In addition, the AC50 under setting [2] is 0.82 µM [falling, full curve, poor fit].
For the compound `COc1ccc(S(=O)(=O)NC(C)C(=O)Nc2cccc(C(C)=O)c2)cc1` (stereo not given), the cell number change is 135%. Moreover, the AC50 under setting [1] is 29.1 µM [rising, single point].
Take `O=C(N/N=C/c1cccc(O)c1)c1ccc(-n2cnnn2)cc1`: the cell number change stood at 7.5%.
In the case of `Oc1c(C(c2ccco2)N2CCN(C(c3ccccc3)c3ccccc3)CC2)sc2ncnn12` (stereo not given), the cell number change is -3.44%. The AC50 under setting [2] is 3.66 µM [falling, partial curve].
As to `O=C(Nc1cccc(Cl)c1)N(Cc1nc2ccccc2c(=O)[nH]1)C1CCCC1`, the cell number change amounted to 18.5%. Further, the AC50 under setting [1] was 0.259 µM [rising, full curve, poor fit].
On to `Cc1ccc(NC(=O)OCCN2CCN(Cc3ccccc3)CCC2=O)cc1C`, for which the cell number change is 4.64%. Also, the AC50 under setting [2] was 3.66 µM [rising, full curve].
Take `Cc1ccc(NC(=O)CSc2nnc(-c3cccnc3)n2CCN2CCCCC2)cc1`: the cell number change amounted to 16.6%. Under setting [2], the AC50 is 29.1 µM [rising, single point].
Consider `CCN(C(=O)COC(=O)C1=COCCO1)c1ccccc1`, for which the cell number change is 1.52%. The half-maximal activity concentration (AC50) under setting [2] is 7.31 µM [rising, partial curve, poor fit].
Consider `Cc1cccc(Oc2cnn(C(C)(C)C)c(=O)c2Cl)c1`, for which the cell number change is -40.8%. Further, the AC50 under setting [1] is 16.4 µM [falling, single point]. Besides, the AC50 under setting [2] is 16.4 µM [falling, single point].
On to `CCOC(=O)C1(CCc2ccccc2)CCN(C(=O)[C@@H]2C[C@@H](C)NC(=S)N2)CC1`, for which the cell number change is 1.06%. Besides, under setting [2], the AC50 is 1.3 µM [rising, full curve].
In the case of `COc1ccc(CNc2ccc(Br)cc2)cc1`, the cell number change was -21.6%. For the same compound, the AC50 under setting [2] was 29.1 µM [falling, single point].
Consider `COc1ccc(C(=O)Nc2ccc(N3CCCCC3)cc2)cc1Br`, for which, under setting [1], the AC50 is 0.00411 µM [rising, full curve, poor fit].
As to `CCN(CC)S(=O)(=O)c1ccc(Cl)c(C(=O)Oc2cccc(-c3cnc4ccccc4n3)c2)c1`, the AC50 reads like this: under setting [1], 1.84 µM [falling, partial curve, poor fit]; under setting [2], 23.1 µM [falling, partial curve].
